According to patent publication US20170362283A1 (UNIVERSITEIT UTRECHT HOLDING B.V., priority 2015, published 2017):
HELM strings list residues between dots; [ac] is acetyl, [am] amide, other brackets name non-standard units.

Test: general procedure: peptide synthesis; BOP, DiPEA

Substance	step yield (lipidation step)	step yield (late stage modification step)
PEPTIDE1{I.[Dhb].[D-Ala_Lan].I.[Dha].L.C.[D-Abu_MeLan].P.G.C.[AcLys].[NHC12]}$PEPTIDE1,PEPTIDE1,3:R3-7:R3|PEPTIDE1,PEPTIDE1,8:R3-11:R3$$$V2.0	36%	
Boc-Nisin [1-11]Lys(Boc)-OH		57% yield
PEPTIDE1{I.[Dhb].[D-Ala_Lan].I.[Dha].L.C.[D-Abu_MeLan].P.G.C.K.[NHC10]}$PEPTIDE1,PEPTIDE1,3:R3-7:R3|PEPTIDE1,PEPTIDE1,8:R3-11:R3$$$V2.0	45%	
PEPTIDE1{I.[Dhb].[D-Ala_Lan].I.[Dha].L.C.[D-Abu_MeLan].P.G.C.K.[NHFarnesyl]}$PEPTIDE1,PEPTIDE1,3:R3-7:R3|PEPTIDE1,PEPTIDE1,8:R3-11:R3$$$V2.0	45%	
PEPTIDE1{I.[Dhb].[D-Ala_Lan].I.[Dha].L.C.[D-Abu_MeLan].P.G.C.K.[NHC14]}$PEPTIDE1,PEPTIDE1,3:R3-7:R3|PEPTIDE1,PEPTIDE1,8:R3-11:R3$$$V2.0	31%	
